{"sequences": {"note": "Amino acid sequences for entries named in this document (tags omitted).", "UniProt P00519, whole entry": "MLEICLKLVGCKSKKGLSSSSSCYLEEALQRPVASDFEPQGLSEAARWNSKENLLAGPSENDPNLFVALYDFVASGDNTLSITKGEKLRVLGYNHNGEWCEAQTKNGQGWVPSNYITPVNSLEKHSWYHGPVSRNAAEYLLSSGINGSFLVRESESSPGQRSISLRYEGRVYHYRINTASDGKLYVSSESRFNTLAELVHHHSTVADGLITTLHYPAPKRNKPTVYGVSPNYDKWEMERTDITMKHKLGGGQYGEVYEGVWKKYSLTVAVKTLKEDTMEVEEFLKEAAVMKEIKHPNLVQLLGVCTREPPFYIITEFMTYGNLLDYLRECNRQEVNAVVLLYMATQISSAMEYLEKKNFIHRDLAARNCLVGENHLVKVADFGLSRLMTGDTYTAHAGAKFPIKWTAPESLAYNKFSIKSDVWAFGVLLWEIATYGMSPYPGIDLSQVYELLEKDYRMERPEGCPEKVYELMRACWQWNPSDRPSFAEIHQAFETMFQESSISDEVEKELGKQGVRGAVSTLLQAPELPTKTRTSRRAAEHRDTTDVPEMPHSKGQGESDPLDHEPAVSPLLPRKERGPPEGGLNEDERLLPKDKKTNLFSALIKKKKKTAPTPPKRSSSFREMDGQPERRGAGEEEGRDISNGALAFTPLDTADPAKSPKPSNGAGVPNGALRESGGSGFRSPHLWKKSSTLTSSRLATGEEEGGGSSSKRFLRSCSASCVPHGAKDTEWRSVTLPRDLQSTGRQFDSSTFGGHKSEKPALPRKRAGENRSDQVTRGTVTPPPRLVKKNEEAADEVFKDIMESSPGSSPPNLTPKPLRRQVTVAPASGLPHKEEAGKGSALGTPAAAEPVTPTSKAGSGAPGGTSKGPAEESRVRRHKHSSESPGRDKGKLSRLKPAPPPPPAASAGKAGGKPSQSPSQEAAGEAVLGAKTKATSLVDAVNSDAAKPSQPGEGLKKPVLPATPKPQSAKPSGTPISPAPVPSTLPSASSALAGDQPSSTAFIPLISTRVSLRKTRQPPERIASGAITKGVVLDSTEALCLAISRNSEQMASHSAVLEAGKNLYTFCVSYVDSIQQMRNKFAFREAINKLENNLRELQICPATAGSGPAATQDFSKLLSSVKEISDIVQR"}, "source": "patent US9127015B2", "about": "“Tricyclopyrazole derivatives” (NERVIANO MEDICAL SCIENCES S.R.L., priority 2009, dated 2015)", "key": {"[1]": {"molecular_target": "ABL (Homo sapiens, UniProt P00519)", "assay": "Kinase inhibition assay, IC50 (Table A)", "details": "Enzyme ABL", "procedure": "(§1) The inhibiting activity of putative kinase inhibitors and the potency of selected compounds is determined through a method of assay based on the use of the Kinase-Glo® Luminescent Kinase Assay (commercially available from Promega corporation and described in Koresawa, M. and Okabe, T. (2004) High-throughput screening with quantitation of ATP consumption: A universal non-radioisotope, homogeneous assay for protein kinase. Assay Drug Dev. Technol. 2, 153-60).\n(§2) The inhibitory activity of putative kinase inhibitors and the potency of selected compounds were also determined using a trans-phosphorylation assay.\n(§3) Specific peptide or protein substrates are trans-phosphorylated by their specific ser-thr or tyr kinase in the presence of ATP traced with ^33P-γ-ATP, and in the presence of their own optimal buffer and cofactors. At the end of the phosphorylation reaction, more than 98% unlabeled ATP and radioactive ATP is captured by an excess of the ion exchange dowex resin; the resin then settles down to the bottom of the reaction plate by gravity. Supernatant is subsequently withdrawn and transferred into a counting plate, then evaluated by β-counting.\n(§4) Reaction conditions are target (enzyme) dependent and thus undergo individual adaptations. Also the buffer conditions may vary depending on the kinase of interest. […]"}, "[2]": {"molecular_target": "ACK1 (Homo sapiens, UniProt Q07912)", "assay": "Kinase inhibition assay, IC50 (Table A)", "details": "Enzyme ACK1", "procedure": "as §1, §2, §3, §4"}}, "note": "Some entries of the source have several records that differ or are many. Only these are listed. There may be further records. The values listed for one entry read as repeated measurements on other runs, samples or individuals.", "data": [{"smiles": "O=C(NCC1CC1)c1cc2n(c1)CCc1c(NC(=O)c3c(Cl)cccc3Cl)n[nH]c1-2", "note": "[Example A38-M1-B41]", "values": [{"measurement": "IC50", "setting": "[1]", "value": "2.29 µM and 920 nM"}, {"measurement": "IC50", "setting": "[2]", "value": "2.48 µM and 1 µM"}]}]}
